The other results are listed elsewhere or left out.
What was measured:
Assay in all cases: glycan array binding signal (z-score within array); higher = stronger binding
Conditions in all cases: glycan notation: IUPAC condensed, linker removed
[1] = target: Neu5Ac(a2-6)Gal(b1-4)GlcNAc(b1-3)Gal(b1-4)GlcNAc(b1-3)Gal(b1-4)GlcNAc(b1-2)Man(a1-3)[Neu5Ac(a2-6)Gal(b1-4)GlcNAc(b1-3)Gal(b1-4)GlcNAc(b1-3)Gal(b1-4)GlcNAc(b1-2)Man(a1-6)]GalNAc
How it was run: (§1)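 Columns mapping to the same glycan were averaged after glycan names were converted to IUPAC-condensed notation. The data come from 3228 arrays in the Consortium for Functional Glycomics database, limited to those with an available protein sequence. Binding is reported as a within-array Z-score averaged across arrays of one protein sequence and across linkers.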

[2] = target: Neu5Ac(a2-6)Gal(b1-4)GlcNAc(b1-3)Gal(b1-4)GlcNAc(b1-3)GalNAc
How it was run: as §1

[3] = target: Neu5Ac(a2-6)Gal(b1-4)GlcNAc(b1-3)Gal(b1-4)GlcNAc(b1-3)[Neu5Ac(a2-6)Gal(b1-4)GlcNAc(b1-3)Gal(b1-4)GlcNAc(b1-6)]GalNAc
How it was run: as §1

[4] = target: Neu5Ac(a2-6)Gal(b1-4)GlcNAc(b1-3)Gal(b1-4)GlcNAc(b1-6)[Gal(b1-3)]GalNAc
How it was run: as §1

[5] = target: Neu5Ac(a2-6)Gal(b1-4)GlcNAc(b1-3)Gal(b1-4)[Fuc(a1-3)]GlcNAc(b1-3)Gal(b1-4)[Fuc(a1-3)]GlcNAc
How it was run: as §1

[6] = target: Neu5Ac(a2-6)Gal(b1-4)GlcNAc(b1-3)GalNAc
How it was run: as §1

[7] = target: Neu5Ac(a2-6)Gal(b1-4)GlcNAc(b1-3)[Neu5Ac(a2-6)Gal(b1-4)GlcNAc(b1-6)]GalNAc
How it was run: as §1

[8] = target: Neu5Ac(a2-6)Gal(b1-4)GlcNAc(b1-6)GalNAc
How it was run: as §1

[9] = target: Neu5Ac(a2-6)Gal(b1-4)GlcNAc(b1-6)[Gal(b1-3)GlcNAc(b1-3)]Gal(b1-4)Glc
How it was run: as §1

[10] = target: Neu5Ac(a2-6)Gal(b1-4)GlcNAc(b1-6)[Gal(b1-3)]GalNAc
How it was run: as §1

[11] = target: Neu5Ac(a2-6)Gal(b1-4)GlcNAc6S
How it was run: as §1

[12] = target: Neu5Ac(a2-6)GalNAc
How it was run: as §1

[13] = target: Neu5Ac(a2-6)GalNAc(b1-4)GlcNAc
How it was run: as §1

[14] = target: Neu5Ac(a2-6)GalNAc(b1-4)GlcNAc6S
How it was run: as §1

[15] = target: Neu5Ac(a2-6)GlcNAc(b1-4)GlcNAc
How it was run: as §1

[16] = target: Neu5Ac(a2-6)GlcNAc(b1-4)GlcNAc(b1-4)GlcNAc
How it was run: as §1

[17] = target: Neu5Ac(a2-8)Neu5Ac
How it was run: as §1

[18] = target: Neu5Ac(a2-8)Neu5Ac(a2-3)Gal(b1-3)GalNAc(b1-4)[Neu5Ac(a2-3)]Gal(b1-4)Glc
How it was run: as §1

[19] = target: Neu5Ac(a2-8)Neu5Ac(a2-3)Gal(b1-3)GalNAc(b1-4)[Neu5Ac(a2-8)Neu5Ac(a2-3)]Gal(b1-4)Glc
How it was run: as §1

[20] = target: Neu5Ac(a2-8)Neu5Ac(a2-3)Gal(b1-4)Glc
How it was run: as §1

[21] = target: Neu5Ac(a2-8)Neu5Ac(a2-3)Gal(b1-4)GlcNAc
How it was run: as §1

[22] = target: Neu5Ac(a2-8)Neu5Ac(a2-3)[Gal(b1-3)GalNAc(b1-4)]Gal(b1-4)Glc
How it was run: as §1

[23] = target: Neu5Ac(a2-8)Neu5Ac(a2-3)[GalNAc(b1-4)]Gal(b1-4)Glc
How it was run: as §1

[24] = target: Neu5Ac(a2-8)Neu5Ac(a2-8)Neu5Ac
How it was run: as §1

[25] = target: Neu5Ac(a2-8)Neu5Ac(a2-8)Neu5Ac(a2-3)Gal(b1-4)Glc
How it was run: as §1

[26] = target: Neu5Ac(a2-8)Neu5Ac(a2-8)Neu5Ac(a2-3)[Gal(b1-3)GalNAc(b1-4)]Gal(b1-4)Glc
How it was run: as §1

[27] = target: Neu5Ac(a2-8)Neu5Ac(a2-8)Neu5Ac(a2-3)[GalNAc(b1-4)]Gal(b1-4)Glc
How it was run: as §1

[28] = target: Neu5Ac(a2-8)Neu5Ac(a2-8)Neu5Ac(a2-8)Neu5Ac(a2-3)[GalNAc(b1-4)]Gal(b1-4)Glc
How it was run: as §1

[29] = target: Neu5Ac(a2-8)Neu5Gc(a2-3)Gal(b1-4)GlcNAc
How it was run: as §1

[30] = target: Neu5Ac(b2-6)Gal(b1-4)GlcNAc
How it was run: as §1

[31] = target: Neu5Ac(b2-6)GalNAc
How it was run: as §1

[32] = target: Neu5Ac9Ac(a2-3)Gal(b1-3)GlcNAc
How it was run: as §1

[33] = target: Neu5Ac9Ac(a2-3)Gal(b1-4)GlcNAc
How it was run: as §1

[34] = target: Neu5Ac9Ac(a2-6)Gal(b1-4)GlcNAc
How it was run: as §1

[35] = target: Neu5Gc(a2-3)Gal(b1-3)GlcNAc
How it was run: as §1

[36] = target: Neu5Gc(a2-3)Gal(b1-3)[Fuc(a1-4)]GlcNAc
How it was run: as §1

[37] = target: Neu5Gc(a2-3)Gal(b1-4)Glc
How it was run: as §1

[38] = target: Neu5Gc(a2-3)Gal(b1-4)GlcNAc
How it was run: as §1

[39] = target: Neu5Gc(a2-3)Gal(b1-4)GlcNAc(b1-3)Gal(b1-4)GlcNAc(b1-2)Man(a1-3)[Neu5Gc(a2-3)Gal(b1-4)GlcNAc(b1-3)Gal(b1-4)GlcNAc(b1-2)Man(a1-6)]Man(b1-4)GlcNAc(b1-4)GlcNAc
How it was run: as §1

[40] = target: Neu5Gc(a2-3)Gal(b1-4)[Fuc(a1-3)]GlcNAc
How it was run: as §1

[41] = target: Neu5Gc(a2-6)Gal(b1-4)GlcNAc
How it was run: as §1

[42] = target: Neu5Gc(a2-6)GalNAc
How it was run: as §1

[43] = target: Neu5Gc(a2-8)Neu5Ac(a2-3)Gal(b1-4)GlcNAc
How it was run: as §1

[44] = target: Neu5Gc(a2-8)Neu5Gc(a2-3)Gal(b1-4)GlcNAc
How it was run: as §1

[45] = target: Neu5Gc(a2-8)Neu5Gc(a2-3)Gal(b1-4)GlcNAc(b1-3)Gal(b1-4)GlcNAc
How it was run: as §1

B1: Langerin K299A/K313A (Homo sapiens), Q9UJ71 (protein)
chain: STLNAQIPELKSDLEKASALNTKIRALQGSLENMSKLLKRQNDILQVVSQGWKYFKGNFYYFSLIPKTWYSAEQFCVSRNSHLTSVTSESEQEFLYKTAGGLIYWIGLTKAGMEGDWSWVDDTPFNKVQSARFWIPGEPNNAGNNEHCGNIAAPSLQAWNDAPCDATFLFICKRPYVPSEP
glycan array binding signal (z-score) [1]: 1.82 | glycan array binding signal (z-score) [2]: -0.902 | glycan array binding signal (z-score) [3]: -0.095 | glycan array binding signal (z-score) [4]: -0.091 | glycan array binding signal (z-score) [5]: -0.9 | glycan array binding signal (z-score) [6]: 0.288 | glycan array binding signal (z-score) [7]: -0.504 | glycan array binding signal (z-score) [8]: 0.715 | glycan array binding signal (z-score) [9]: -0.74 | glycan array binding signal (z-score) [10]: -0.308 | glycan array binding signal (z-score) [11]: -1.54 | glycan array binding signal (z-score) [12]: -0.621 | glycan array binding signal (z-score) [13]: -1.13 | glycan array binding signal (z-score) [14]: -0.373 | glycan array binding signal (z-score) [15]: -0.867 | glycan array binding signal (z-score) [16]: -0.318 | glycan array binding signal (z-score) [17]: -0.543 | glycan array binding signal (z-score) [18]: 0.043 | glycan array binding signal (z-score) [19]: -0.256 | glycan array binding signal (z-score) [20]: -0.708 | glycan array binding signal (z-score) [21]: -1.24 | glycan array binding signal (z-score) [22]: 0.095 | glycan array binding signal (z-score) [23]: -0.957 | glycan array binding signal (z-score) [24]: -0.55 | glycan array binding signal (z-score) [25]: -0.346 | glycan array binding signal (z-score) [26]: 1.26 | glycan array binding signal (z-score) [27]: -0.629 | glycan array binding signal (z-score) [28]: -0.964 | glycan array binding signal (z-score) [29]: -1.07 | glycan array binding signal (z-score) [30]: -0.699 | glycan array binding signal (z-score) [31]: -0.61 | glycan array binding signal (z-score) [32]: -0.42 | glycan array binding signal (z-score) [33]: -0.583 | glycan array binding signal (z-score) [34]: -0.871 | glycan array binding signal (z-score) [35]: -0.452 | glycan array binding signal (z-score) [36]: -0.236 | glycan array binding signal (z-score) [37]: -0.569 | glycan array binding signal (z-score) [38]: -0.25 | glycan array binding signal (z-score) [39]: 0.164 | glycan array binding signal (z-score) [40]: 0.037 | glycan array binding signal (z-score) [41]: -0.32 | glycan array binding signal (z-score) [42]: -0.103 | glycan array binding signal (z-score) [43]: -0.057 | glycan array binding signal (z-score) [44]: 0.736 | glycan array binding signal (z-score) [45]: 0.186

From the supplement of paper PMC8728848
